# According to PubChem BioAssay AID1487 (National Center for Advancing Translational Sciences (NCATS), 2009):
# The list shows a part of the results. Further columns of the screen follow, without active or inactive calls. Compounds called inactive in the main read-out are mostly missing here. Potencies come from curve fits of mixed quality, noted in brackets.
# Assay: qHTS Assay for Modulators of Lamin A Splicing
# Settings: HeLa LMNA splicing GFP/RFP minigene ratio, 48 h
# Outline: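 S3 HeLa cells stably expressing lamin A-EGFP splicing minigene plus DsRed2, 600 cells/well, 48 h compound exposure at 37C. Laser-scanning cytometry; analysed as GFP (500-530 nm)/RFP (575-640 nm) total intensity ratio; 0.5% DMSO vehicle.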
# [1] = measured here: GFP splicing reporter channel
# [2] = measured here: RFP viability control channel
SMILES,AC50 [1],AC50 [2]
CN(C)c1ccc(S(=O)(=O)N(C)C)cc1[N+](=O)[O-],"0.224 µM [falling, full curve, poor fit]",–
CC(=O)c1cc(F)c(N2CCN(C(=O)COc3ccc(F)cc3)CC2)cc1C,–,"28.2 µM [rising, single point]"
CC1=NNC(=O)C1CCC(=O)N/N=C\c1ccc(Cl)c(Cl)c1 (stereo not drawn),–,"0.631 µM [falling, single point]"
NCC(O)CC(=O)O (stereo not drawn),"1.26 µM [falling, single point]","35.5 µM [falling, single point]"
O=C(CSc1nnc2[nH]c(=O)cc(-c3ccccc3)n12)Nc1ccccc1C(F)(F)F,–,"22.4 µM [falling, partial curve, poor fit]"
COc1ccc(CCNC(=O)c2cc3c(=O)n4ccccc4nc3n2C)cc1,"12.6 µM [falling, partial curve]",–
CC(=O)OCC(CCn1cnc2cnc(N)nc21)COC(C)=O,"35.5 µM [falling, single point]",–
NNc1nncc2ccccc12,"0.000316 µM [falling, full curve, poor fit]","3.16 µM [falling, single point]"
O=C(c1cccs1)N(Cc1ccco1)c1nc(-c2ccc(F)cc2)cs1,–,"35.5 µM [rising, single point]"
CCOC(=O)c1csc(NC(=O)c2ccc(OC)c(OC)c2)n1,–,"3.98 µM [falling, full curve, poor fit]"
COC(=O)c1ccccc1Sc1c(/C=N/OC(=O)c2ccccc2)c(C(F)(F)F)nn1C,–,"10 µM [rising, partial curve, poor fit]"
CCCc1ccc(C(=O)NNc2ccc(F)cc2)cc1,"0.282 µM [rising, partial curve, poor fit]",–
CCOc1ccc(C(C)NC(=O)C2CCCC2)cc1 (stereo not drawn),–,"6.31 µM [rising, single point]"
O=C1c2cccc3c(Cl)ccc(c23)C(=O)N1O,"35.5 µM [falling, single point]",–
CCCCc1c(O)c2ccccc2n(CCCC)c1=O,"11.2 µM [rising, single point]","20 µM [rising, single point]"
CCN(CC)S(=O)(=O)c1ccc(Cl)c(NC(=O)COc2ccc3c(C)cc(=O)oc3c2)c1,–,"2 µM [rising, partial curve, poor fit]"
COc1ccc(C2=Nn3c(nnc3-c3ccncc3)SC2)cc1OC,–,"35.5 µM [rising, single point]"
O=C(NCc1ccc(Cl)cc1)c1ncn[nH]1,–,"4.47 µM [falling, single point]"
O=C(NCCCc1ccccc1)c1cccc([N+](=O)[O-])c1,"2.24 µM [rising, partial curve, poor fit]",–

# A run of entries taken from the entries so far:
SMILES,AC50 [1],AC50 [2]
NCC(O)CC(=O)O (stereo not drawn),"1.26 µM [falling, single point]","35.5 µM [falling, single point]"
O=C(CSc1nnc2[nH]c(=O)cc(-c3ccccc3)n12)Nc1ccccc1C(F)(F)F,–,"22.4 µM [falling, partial curve, poor fit]"
COc1ccc(CCNC(=O)c2cc3c(=O)n4ccccc4nc3n2C)cc1,"12.6 µM [falling, partial curve]",–
CC(=O)OCC(CCn1cnc2cnc(N)nc21)COC(C)=O,"35.5 µM [falling, single point]",–
NNc1nncc2ccccc12,"0.000316 µM [falling, full curve, poor fit]","3.16 µM [falling, single point]"

# Next part

SMILES,AC50 [1],AC50 [2]
Cc1nc(Nc2ccc3c(c2)OCCO3)c2oc3ccccc3c2n1,"35.5 µM [rising, single point]","35.5 µM [rising, single point]"
Cc1ccc(OCCSc2cc(C)nc(N)n2)cc1,"17.8 µM [rising, partial curve]","20 µM [rising, single point]"
O=C(NCc1ccccc1)c1ccc(CSc2nc3cccnc3n2Cc2ccccc2)cc1,"0.02 µM [falling, full curve, poor fit]","0.02 µM [falling, full curve, poor fit]"
O=C1C2C3c4ccccc4C(c4ccccc43)C2c2nc3ccccc3n21 (stereo not drawn),–,"20 µM [rising, single point]"
CSc1ccccc1NC(=O)CN1CCCCC1,"0.0398 µM [falling, full curve, poor fit]",–
COc1ccc(N2CCN(C(=O)c3cccc(Cn4cc(Cl)cn4)c3)CC2)cc1,–,"12.6 µM [rising, partial curve]"
Cc1cc(C(=O)COC(=O)Cc2n[nH]c(=O)c3ccccc23)c(C)n1-c1cccc(C(F)(F)F)c1,"14.1 µM [rising, single point]","15.8 µM [rising, partial curve, poor fit]"
Cc1ccc2nc(SCC(=O)Nc3ccc(F)c([N+](=O)[O-])c3)[nH]c2c1,–,"28.2 µM [rising, single point]"
CCN(CCn1cccn1)C(=O)c1cc(COc2c(F)cccc2F)on1,–,"0.00562 µM [falling, full curve, poor fit]"
Cc1ccc(C)n1-n1c(C)nc2sc3c(c2c1=O)CCCCC3,"14.1 µM [rising, single point]","14.1 µM [rising, single point]"
O=C1S/C(=C\c2ccc(O)c([N+](=O)[O-])c2)C(=O)N1Cc1cccc([N+](=O)[O-])c1,"31.6 µM [rising, single point]","7.08 µM [falling, partial curve, poor fit]"
CC(C)(C)C1CCC(=NNC(=O)c2cc(-c3ccccc3)n[nH]2)CC1 (stereo not drawn),–,"6.31 µM [falling, partial curve]"
COc1ccc(CNc2ccnc(-c3ccc(N(C)C)cc3)n2)c(OC)c1,"5.62 µM [falling, partial curve]","8.91 µM [falling, partial curve]"
CCOC(=O)c1cnn(-c2ccccc2)c1NC(=O)c1ccccc1C,"0.178 µM [rising, full curve, poor fit]",–
COc1ccc(Cl)cc1NC(=O)C1CCN(c2ncnc3c2nc2n3CCCCC2)CC1,"31.6 µM [falling, partial curve]","20 µM [falling, single point]"
CCOC(=O)c1ccc(Nc2cc(C)nc(N3CCOCC3)n2)cc1,"35.5 µM [falling, single point]","35.5 µM [falling, single point]"
O=C(Nc1cccc(C(F)(F)F)c1)C(Sc1ncnc2ccccc12)c1ccccc1 (stereo not drawn),–,"0.398 µM [rising, full curve, poor fit]"
CC(C)(C)c1ccc(OCCC(=O)Nc2cccc(S(=O)(=O)N3CCCCC3)c2)cc1,"5.01 µM [rising, partial curve]","12.6 µM [rising, partial curve]"
COc1ccc(C(c2c(O)cc(C)n(Cc3ccco3)c2=O)N2CCN(c3ccccc3)CC2)cc1 (stereo not drawn),–,"0.0251 µM [falling, full curve, poor fit]"

SMILES,AC50 [1],AC50 [2]
CC(C)CCNc1c(-c2cccs2)nc2ccccn12,"1.58 µM [falling, partial curve, poor fit]",–
O=[N+]([O-])c1ccc(N2CCCCC2)nc1,"15.8 µM [rising, partial curve, poor fit]","17.8 µM [rising, partial curve]"
O=C(Cc1ccccc1)NNc1c2ccccc2nc2ccccc12,–,"10 µM [rising, partial curve]"
CC(=O)n1nc(-c2cccnc2)nc1NCc1cccs1,"1.41 µM [falling, full curve, poor fit]","2 µM [falling, full curve, poor fit]"
COc1ccc(CSC(=N)N)cc1[N+](=O)[O-],–,"35.5 µM [rising, single point]"
COc1ccc(Cc2nc(C(=O)Nc3ccc(OC)cc3)cs2)cc1,–,"15.8 µM [rising, partial curve]"
O=[N+]([O-])c1ccc(Sc2nnnn2-c2ccccc2)c(Cl)c1,–,"11.2 µM [rising, single point]"
COc1ccccc1NC(=O)/C=C\C(=O)O,–,"6.31 µM [falling, single point]"
CC(C)OCCCNC(=S)N1CCC(C(=O)c2ccc3c(c2)OCCO3)CC1,–,"35.5 µM [falling, single point]"
CCC(c1nnnn1CCc1ccccc1)N(Cc1ccco1)Cc1cc2cc(C)cc(C)c2[nH]c1=O (stereo not drawn),–,"35.5 µM [rising, single point]"
O=C(NCCc1ccccc1F)C1CCCN1S(=O)(=O)c1ccccc1 (stereo not drawn),"35.5 µM [rising, single point]",–
COc1cc(/C=N/Nc2ncc(C(F)(F)F)cc2Cl)cc(OC)c1O,–,"15.8 µM [rising, single point]"
O=C1CC(N2CCC(c3nc4ccccc4s3)CC2)C(=O)N1Cc1ccccc1 (stereo not drawn),–,"22.4 µM [rising, single point]"
CCCc1nnc(SCC(=O)N2CCCCC2C)n1CCOC (stereo not drawn),"0.708 µM [rising, full curve, poor fit]",–
CCOc1ccc(OCC(O)CNC2CCN(Cc3ccccc3)CC2)cc1 (stereo not drawn),–,"35.5 µM [rising, single point]"
CCOc1cccc(C(=O)Nc2ccncc2)c1,–,"14.1 µM [rising, partial curve, poor fit]"
O=C(Nc1cc(C(F)(F)F)ccc1N1CCOCC1)c1cccc(F)c1,"22.4 µM [rising, single point]",–
C=C1NC(=O)c2cc(CN(C)c3ccc(C(=O)N[C@@H](CCC(=O)O)C(=O)O)s3)ccc2N1,–,"0.00891 µM [rising, full curve]"
O=C(OCC1OC(OC(=O)c2cc(O)c(O)c(OC(=O)c3cc(O)c(O)c(O)c3)c2)[C@@H](OC(=O)c2cc(O)c(O)c(OC(=O)c3cc(O)c(O)c(O)c3)c2)C(OC(=O)c2cc(O)c(O)c(OC(=O)c3cc(O)c(O)c(O)c3)c2)C1OC(=O)c1cc(O)c(O)c(OC(=O)c2cc(O)c(O)c(O)c2)c1)c1cc(O)c(O)c(OC(=O)c2cc(O)c(O)c(O)c2)c1 (stereo partly drawn),"2.24 µM [falling, partial curve]","2 µM [falling, partial curve]"
